Fewer than 10 of roughly 2,800 compounds were called active. Another 7% or so got no clear call; they are omitted. Calls follow the shape of the dose curve; as a rule, active = well fitted inhibition curve with a large enough effect; inconclusive = small, poorly fitted or top-dose-only effect; inactive = no such curve, though single readings can be large or run the other way. The list shows a part of the results.

Amino acid sequences for entries named in this document (tags omitted). A change or cut given only in a name is not applied to a line headed by its entry.
UniProt C7C422: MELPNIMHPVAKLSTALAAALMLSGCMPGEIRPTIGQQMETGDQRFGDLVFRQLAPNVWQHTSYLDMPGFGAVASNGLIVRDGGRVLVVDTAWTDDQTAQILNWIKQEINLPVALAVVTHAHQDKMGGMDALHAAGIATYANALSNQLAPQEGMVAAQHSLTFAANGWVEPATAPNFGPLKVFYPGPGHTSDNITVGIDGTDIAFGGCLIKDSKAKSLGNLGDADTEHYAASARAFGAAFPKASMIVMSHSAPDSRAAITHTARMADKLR

In this test the target is Metallo-beta-lactamase type 2 (Klebsiella pneumoniae) (UniProt C7C422). Description: qHTS to identify inhibitors of the New Delhi Metallo-beta-lactamase (NDM): Nitrocefin screen against the machine-based learning selections. Also: % of control where 0% means no effect. The conditions noted are these: NDM-1 enzyme, nitrocefin hydrolysis, absorbance 485 nm; activity, negative = inhibition: at the top concentration. The method, boiled down:
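Hydrolysis by 2 nM NDM-1 was followed by absorbance after >30 min compound preincubation in HEPES pH 7.0 buffer with 1 uM Zn2SO4. For nitrocefin (16.7 uM, 15 min, 485 nm) and meropenem (50 uM, 30 min, 300 nm), each substrate ran on separate plates.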
On the technique in general: qHTS replaces the single test concentration by a dilution series.
In the case of `C[C@@H]1C(=O)O[C@H]2[C@H]1CC[C@@]1(C)Cc3sc(NS(=O)(=O)c4ccc5c(c4)CN(C(=O)C(F)(F)F)CC5)nc3[C@@H](C)[C@H]21`, the “activity, negative = inhibition” value was inactive: -3.33%.

`O=C(O)C[C@@H]1CCN(C(=O)C2CCC2)C[C@@H]1CCN1CCC(n2c(=O)[nH]c3ccccc32)CC1`: the “activity, negative = inhibition” value is inactive: -3.28%.

As to `COC(=O)N1CCn2c(nnc2-c2ccc(OC)cc2)C1`, the “activity, negative = inhibition” value was inactive: -3.94% [at 57.5 µM].

`O=C(CCc1cc(=O)[nH]o1)N[C@H](c1ccccn1)C1CC(O)C1` (stereo partly specified): the “activity, negative = inhibition” value was inactive: 0.879%.

In the case of `CN1[C@@H](CCC(=O)NCc2cccnc2)CNC(=O)[C@@H]2[C@H]1CCN2Cc1nc2ccccc2n1C`, the “activity, negative = inhibition” value is inactive: -4.66%.

On to `O=C(c1cnc2c(O)cccn2c1=O)N1CCC2(CC1)OCCCC2O` (stereo unspecified), for which the “activity, negative = inhibition” value was inactive: -16.4%.

On to `CC[C@H]1CN(C(=O)c2ccc(F)cc2)CC[C@H]1CC(=O)NC1CCCC1`, for which the “activity, negative = inhibition” value was inactive: -2.8% [at 57.5 µM].

On to `Cc1nc2c(NC3CCN(C(=O)c4cnccn4)CC3)cccn2n1`, for which the “activity, negative = inhibition” value is inactive: -9.57%.

Take `O=C(Cc1c[nH]c2ncc(-c3ccccc3)cc12)NCC1CCOCC1`: the “activity, negative = inhibition” value was inactive: -1.26% [at 57.5 µM].

On to `CC(=O)N1CC[C@H](c2nc3cc(C)ccc3o2)C1`, for which the “activity, negative = inhibition” value was inactive: -5.97% [at 76.7 µM].

Regarding `O=C(O)c1cc(-c2ccncc2)cc(S(=O)(=O)N2CCCCCC2)c1`, the “activity, negative = inhibition” value was inactive: 3.61%.

Consider `CN(C)C1CCN(c2nc(-c3ccncc3)nc3c2CNC3)C1` (stereo unspecified), for which the “activity, negative = inhibition” value is inactive: -18.4%.

As to `COc1cc(=O)n2c(c1C(=O)NC1CCCCCC1)CCCC2`, the “activity, negative = inhibition” value is inactive: 0.186%.

With `Cc1sc2ccn(C)c(=O)c2c1C(=O)NCc1ccc(OC(C)C)cc1`, the “activity, negative = inhibition” value was inactive: 4.04%.

Take `COc1ccc(-c2ccc3c(c2)C(=O)N2CC[C@H](NC(=O)c4cccs4)[C@H]2C(=O)N3)c(OC)c1`: the “activity, negative = inhibition” value is inactive: -4.39%.

With `O=C1Cc2c(-c3ccc4ccccc4c3)n[nH]c2CN1CCc1ccncc1`, the “activity, negative = inhibition” value was inactive: -4.45% [at 57.5 µM].

For `COc1ncccc1CNC[C@H]1O[C@@H]2C[C@@H](CC(=O)N3CCOCC3)O[C@@H]2[C@@H]1O`, the “activity, negative = inhibition” value is inactive: -3.32% [at 57.5 µM].

Turning to `c1ccc(Nc2cc3c(cn2)CN(Cc2cnc[nH]2)CCN3)cc1`, the “activity, negative = inhibition” value was inactive: 4.9% [at 57.5 µM].

Regarding `COC1CCN(CC2CCCCCN2C(=O)CCCc2ccccc2)CC1` (stereo unspecified), the “activity, negative = inhibition” value is inactive: -6.93%.

As to `Cc1cc(C(=O)N2C[C@@H](COc3ccccc3)[C@H](C(N)=O)C2)no1`, the “activity, negative = inhibition” value is inactive: -6.66%.

On to `COc1ccc2c(c1)nc1n2[C@@H](CNC(=O)c2ccncc2)COC1`, for which the “activity, negative = inhibition” value is inactive: 0.0321% [at 57.5 µM].

`CC(C)(O)CCc1ccc(C(=O)N2CCC(c3cccc(O)c3)CC2)cc1`: the “activity, negative = inhibition” value was inactive: -3.43%.

Regarding `CC(=O)N1CCC(NC[C@H]2COCc3nc4cc(C)ccc4n32)CC1`, the “activity, negative = inhibition” value is inactive: 0.791% [at 57.5 µM].

On to `c1ccc(CNc2ncc(CN3CCC4(CCNCC4)CC3)cn2)cc1`, for which the “activity, negative = inhibition” value was inactive: -7.7%.

Consider `CNc1ccc(OC2CCN(C(=O)CCc3nc4ccccc4[nH]3)C2)nc1` (stereo unspecified), for which the “activity, negative = inhibition” value was inactive: 1.82%.

On to `Cn1cccc1C(=O)N1CC[C@H](NC(=O)NC2CCCCC2)[C@H]1C(=O)N1CCC[C@@H]1C(N)=O`, for which the “activity, negative = inhibition” value is inactive: -1.53%.

With `O=C(Cc1ccc(N(Cc2ccc(F)cc2)C(=O)c2ccco2)cc1)NCc1ccc(F)cc1`, the “activity, negative = inhibition” value was inactive: -6.09%.

Regarding `CCOc1ccccc1NC(=O)N1C[C@H](Oc2ccccc2)C[C@@H]1C(=O)NCCOC`, the “activity, negative = inhibition” value was inactive: 2.31%.

As for `CN[C@@H](CO)C(=O)NCc1nc(-c2cccc(F)c2)c(-c2ccccn2)[nH]1`, the “activity, negative = inhibition” value was inactive: 2.6%.

With `COc1ccc(-c2nnc3n2CCN(C(=O)C(C)(C)C)C3)cc1`, the “activity, negative = inhibition” value is inactive: 6.95% [at 57.5 µM].

As for `CC1CCN(C(=O)c2ccccc2OCC2CCCN(C(=O)c3ccncc3)C2)CC1` (stereo unspecified), the “activity, negative = inhibition” value was inactive: 2.57%.

`COC(=O)C(=O)N1CC[C@@H]2[C@H]1C(=O)N(C(C)C)C(=O)N2Cc1cccc(F)c1`: the “activity, negative = inhibition” value is inactive: -1.89% [at 57.5 µM].

As to `CN1C[C@@H](NS(C)(=O)=O)C[C@H]1c1nc(-c2ccc(Cl)cc2)no1`, the “activity, negative = inhibition” value is inactive: 0.0064% [at 57.5 µM].

Take `O=C(NC[C@H]1O[C@@H]2C[C@@H](CC(=O)N3CCC(F)(F)C3)O[C@@H]2[C@@H]1O)NC1CCC1`: the “activity, negative = inhibition” value is inactive: -1.33% [at 57.5 µM].

As to `O=C(COc1ccccc1)Nc1ccc([C@@H](O)[C@H]2COCC(=O)N2Cc2ccccc2F)cc1`, the “activity, negative = inhibition” value was inactive: 1.43%.

On to `COc1ccccc1C(O)c1nc(Nc2ccncc2)n[nH]1` (stereo unspecified), for which the “activity, negative = inhibition” value is inactive: -8.6% [at 57.5 µM].

Take `O=C(NC[C@H]1COCc2nc3ccccc3n21)c1cccnc1`: the “activity, negative = inhibition” value is inactive: 1.75% [at 57.5 µM].

Turning to `O=c1cc(-c2cccnc2)oc2c(-c3cccc(CO)c3)nccc12`, the “activity, negative = inhibition” value is inactive: 8.02% [at 57.5 µM].

In the case of `CC(C)CN1C(=O)COC[C@@H]1[C@H](O)c1ccc(NC(=O)c2ccco2)cc1`, the “activity, negative = inhibition” value is inactive: 6.73% [at 57.5 µM].

As for `Cc1cccc(-c2ccc3c(c2)C(=O)N2C[C@H](O)C[C@H]2C(=O)N3)c1C`, the “activity, negative = inhibition” value is inactive: -7.47% [at 57.5 µM].

In the case of `O=C(NC1CCCN(CCc2ccccc2)C1)C1(Cn2cccn2)CC1` (stereo unspecified), the “activity, negative = inhibition” value is inactive: 1.44%.

Turning to `CC(=O)N1CC[C@H](c2nc3ccc(C#N)cc3[nH]2)C1`, the “activity, negative = inhibition” value was inactive: 4.92% [at 76.7 µM].

As to `C[C@@H]1C(=O)O[C@H]2[C@H]1CC[C@@]1(C)Cc3sc(NS(=O)(=O)c4ccc(Cl)cc4)nc3[C@@H](C)[C@H]21`, the “activity, negative = inhibition” value is inactive: -2.77%.

Take `CNC(=O)[C@@H]1C[C@H](Oc2cccnc2)CN1C(=O)c1ccc(OC)nc1`: the “activity, negative = inhibition” value was inactive: 0.401%.

For `C[S+](=O)([O-])c1cccc(Nc2n[nH]c(C(O)c3ccccc3)n2)c1` (stereo unspecified), the “activity, negative = inhibition” value was inactive: -3.79% [at 57.5 µM].

Consider `O=C(O)Cn1ccc2cc(OCc3cccc(-c4ccccc4O)c3)cnc21`, for which the “activity, negative = inhibition” value is inactive: -5.4% [at 57.5 µM].

Values taken from PubChem BioAssay AID1794844 (National Center for Advancing Translational Sciences (NCATS), 2023).
